In US8193154B2 (The Board of Trustees of the Leland Stanford Junior …, priority 2007, dated 2012):
Plain letter strings leave the end groups untold.

Assay: peptide made by a vendor
Conditions: whole synthesis

YRSRKYSSWY
purity (crude or final not stated): purity 94%
